Results are given in words; binding and its absence hold for the method and conditions named. Binding seen in cells or lysates may run through a third protein. A yes stands for co-enrichment or nearness to the bait. Other partners may have been found. Where a sequence is shown, tags or fusion partners need not be part of it.
These substances were tested against FLAG-HA-iASPP (stably expressed in HeLa cells) (UniProt Q8WUF5) (assay: affinity purification with mass spectrometry; tandem affinity purification from HeLa cells stably expressing the FLAG-HA-tagged bait (iASPP or CEP55): lysis in BC100 buffer (20 mM Tris-Cl pH 7.9, 100 mM NaCl, 0.2 mM EDTA, 20% glycerol) with 0.2% Triton X-100; anti-FLAG M2 agarose, FLAG peptide elution, then anti-HA agarose, HA peptide elution; SDS-PAGE, gel bands sequenced by LC-MS/MS).

Chains of the proteins cited; added tags and fusions are not shown.
UniProt Q15691: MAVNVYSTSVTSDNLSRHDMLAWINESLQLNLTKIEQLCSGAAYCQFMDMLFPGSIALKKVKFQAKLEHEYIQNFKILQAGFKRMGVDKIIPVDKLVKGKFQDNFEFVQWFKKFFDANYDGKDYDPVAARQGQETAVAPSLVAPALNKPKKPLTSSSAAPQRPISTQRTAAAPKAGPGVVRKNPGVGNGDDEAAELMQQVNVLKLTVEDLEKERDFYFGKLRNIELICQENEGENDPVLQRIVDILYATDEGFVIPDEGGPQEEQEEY
UniProt P19838: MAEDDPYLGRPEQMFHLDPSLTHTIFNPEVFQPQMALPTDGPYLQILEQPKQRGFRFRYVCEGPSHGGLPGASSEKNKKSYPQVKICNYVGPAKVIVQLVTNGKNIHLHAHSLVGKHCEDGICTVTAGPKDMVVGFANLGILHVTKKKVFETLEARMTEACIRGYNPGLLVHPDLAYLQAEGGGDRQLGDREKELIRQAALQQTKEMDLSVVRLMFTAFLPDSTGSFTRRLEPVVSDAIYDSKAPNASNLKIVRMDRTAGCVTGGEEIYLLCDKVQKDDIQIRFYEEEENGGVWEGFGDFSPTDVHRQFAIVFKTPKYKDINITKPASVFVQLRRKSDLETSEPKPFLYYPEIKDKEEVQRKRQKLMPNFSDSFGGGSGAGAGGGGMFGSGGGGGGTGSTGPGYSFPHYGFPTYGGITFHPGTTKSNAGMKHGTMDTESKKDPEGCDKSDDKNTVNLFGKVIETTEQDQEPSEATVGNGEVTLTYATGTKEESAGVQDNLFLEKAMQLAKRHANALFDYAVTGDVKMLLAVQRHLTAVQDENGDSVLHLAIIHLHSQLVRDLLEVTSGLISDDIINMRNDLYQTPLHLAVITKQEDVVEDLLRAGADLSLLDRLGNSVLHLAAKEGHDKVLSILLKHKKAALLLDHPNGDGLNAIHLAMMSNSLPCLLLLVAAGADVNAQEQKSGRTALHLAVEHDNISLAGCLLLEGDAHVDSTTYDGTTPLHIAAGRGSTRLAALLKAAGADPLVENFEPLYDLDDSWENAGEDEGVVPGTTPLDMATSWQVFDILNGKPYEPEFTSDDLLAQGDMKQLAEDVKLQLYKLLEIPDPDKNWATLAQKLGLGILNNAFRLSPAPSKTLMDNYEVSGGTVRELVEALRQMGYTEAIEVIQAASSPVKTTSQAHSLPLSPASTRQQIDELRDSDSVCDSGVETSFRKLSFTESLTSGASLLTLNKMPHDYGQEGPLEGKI
UniProt P62136: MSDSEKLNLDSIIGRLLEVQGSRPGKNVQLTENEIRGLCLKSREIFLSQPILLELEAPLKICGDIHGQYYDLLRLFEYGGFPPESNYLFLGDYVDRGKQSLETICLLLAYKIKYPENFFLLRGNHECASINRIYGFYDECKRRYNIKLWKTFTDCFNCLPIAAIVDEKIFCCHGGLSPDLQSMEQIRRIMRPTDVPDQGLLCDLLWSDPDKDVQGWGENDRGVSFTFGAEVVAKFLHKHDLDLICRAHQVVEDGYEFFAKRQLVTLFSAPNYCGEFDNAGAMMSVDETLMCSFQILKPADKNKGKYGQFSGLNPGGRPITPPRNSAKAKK
UniProt P62140: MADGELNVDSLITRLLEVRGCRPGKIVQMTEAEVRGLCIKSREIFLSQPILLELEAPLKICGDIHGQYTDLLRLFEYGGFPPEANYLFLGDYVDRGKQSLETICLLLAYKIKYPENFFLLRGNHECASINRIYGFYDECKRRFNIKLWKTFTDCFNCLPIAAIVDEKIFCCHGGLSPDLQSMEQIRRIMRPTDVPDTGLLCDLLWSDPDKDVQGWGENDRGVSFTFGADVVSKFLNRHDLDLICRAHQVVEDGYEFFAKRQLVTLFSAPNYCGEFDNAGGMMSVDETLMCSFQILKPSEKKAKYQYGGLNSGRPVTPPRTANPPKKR
UniProt P36873: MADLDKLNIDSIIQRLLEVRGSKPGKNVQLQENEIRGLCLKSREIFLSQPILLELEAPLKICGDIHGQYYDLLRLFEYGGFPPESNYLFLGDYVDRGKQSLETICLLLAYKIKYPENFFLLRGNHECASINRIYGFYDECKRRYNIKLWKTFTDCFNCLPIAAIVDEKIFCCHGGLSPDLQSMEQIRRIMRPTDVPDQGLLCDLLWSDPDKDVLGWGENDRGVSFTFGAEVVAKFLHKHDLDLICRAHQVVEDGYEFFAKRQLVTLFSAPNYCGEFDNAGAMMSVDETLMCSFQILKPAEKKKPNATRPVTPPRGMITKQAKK
UniProt Q8WUM4: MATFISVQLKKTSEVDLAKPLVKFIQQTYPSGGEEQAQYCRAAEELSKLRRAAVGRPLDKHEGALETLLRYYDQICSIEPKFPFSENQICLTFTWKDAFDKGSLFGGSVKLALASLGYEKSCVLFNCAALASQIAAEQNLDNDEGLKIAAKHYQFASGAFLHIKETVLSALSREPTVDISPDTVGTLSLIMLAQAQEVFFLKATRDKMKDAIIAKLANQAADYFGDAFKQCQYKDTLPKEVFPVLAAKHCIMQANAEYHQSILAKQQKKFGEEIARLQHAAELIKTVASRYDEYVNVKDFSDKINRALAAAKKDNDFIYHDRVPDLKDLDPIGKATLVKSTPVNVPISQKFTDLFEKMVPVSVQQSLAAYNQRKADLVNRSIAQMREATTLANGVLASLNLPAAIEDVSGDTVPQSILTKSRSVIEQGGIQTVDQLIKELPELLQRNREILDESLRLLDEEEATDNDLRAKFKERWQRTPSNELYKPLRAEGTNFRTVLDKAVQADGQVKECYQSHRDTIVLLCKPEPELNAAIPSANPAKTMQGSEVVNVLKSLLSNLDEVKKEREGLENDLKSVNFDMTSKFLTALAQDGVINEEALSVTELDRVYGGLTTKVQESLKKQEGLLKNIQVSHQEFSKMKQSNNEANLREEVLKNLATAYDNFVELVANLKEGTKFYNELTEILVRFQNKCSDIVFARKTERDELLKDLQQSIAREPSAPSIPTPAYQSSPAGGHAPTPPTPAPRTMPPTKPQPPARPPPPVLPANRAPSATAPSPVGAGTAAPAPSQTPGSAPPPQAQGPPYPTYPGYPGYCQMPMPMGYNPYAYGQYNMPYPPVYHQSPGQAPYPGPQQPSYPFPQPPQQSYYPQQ
UniProt Q99816: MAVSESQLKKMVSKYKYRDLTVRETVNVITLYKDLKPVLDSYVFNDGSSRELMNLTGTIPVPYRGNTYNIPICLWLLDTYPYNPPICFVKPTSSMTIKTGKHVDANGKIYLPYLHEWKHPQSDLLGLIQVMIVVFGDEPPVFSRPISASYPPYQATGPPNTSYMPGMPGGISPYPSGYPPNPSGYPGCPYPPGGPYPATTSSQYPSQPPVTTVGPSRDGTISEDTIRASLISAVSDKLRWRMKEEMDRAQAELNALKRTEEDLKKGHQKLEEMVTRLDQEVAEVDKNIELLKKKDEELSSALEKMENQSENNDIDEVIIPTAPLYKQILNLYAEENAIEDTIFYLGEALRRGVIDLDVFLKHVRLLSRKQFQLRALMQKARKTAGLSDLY

binding | Substance
binds | MAPRE1 (microtubule plus-end-tracking protein), endogenous (from UniProt Q15691 1-268)
binds | MAPRE3 (microtubule plus-end-tracking protein), endogenous (from UniProt Q9UPY8 1-281)
binds | NFKB1 (NF-κB subunit), endogenous (from UniProt P19838 1-968)
binds | PP1α (catalytic subunit of protein phosphatase 1), endogenous (from UniProt P62136 1-330) (enzyme)
binds | PP1β (catalytic subunit of protein phosphatase 1), endogenous (from UniProt P62140 1-327) (enzyme)
binds | PP1γ (catalytic subunit of protein phosphatase 1), endogenous (from UniProt P36873 1-323) (enzyme)

Each substance was assayed against T1, FLAG-HA-CEP55 (stably expressed in HeLa cells) (UniProt Q53EZ4) in the same assay as above.
T1 sequence: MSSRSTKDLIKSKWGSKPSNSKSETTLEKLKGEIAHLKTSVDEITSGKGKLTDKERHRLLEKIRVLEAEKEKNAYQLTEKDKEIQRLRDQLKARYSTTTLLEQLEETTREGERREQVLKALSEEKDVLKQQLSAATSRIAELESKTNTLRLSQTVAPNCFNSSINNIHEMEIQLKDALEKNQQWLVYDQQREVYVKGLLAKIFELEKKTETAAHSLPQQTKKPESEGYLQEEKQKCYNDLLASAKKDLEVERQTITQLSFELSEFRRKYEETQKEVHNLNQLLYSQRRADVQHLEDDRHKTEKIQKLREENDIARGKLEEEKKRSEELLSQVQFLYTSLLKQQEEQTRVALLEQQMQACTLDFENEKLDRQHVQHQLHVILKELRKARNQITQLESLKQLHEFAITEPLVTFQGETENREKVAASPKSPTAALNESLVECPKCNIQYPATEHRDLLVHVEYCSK

binding | Substance
binds | ALIX, endogenous (from UniProt Q8WUM4 1-868)
binds | TSG101, endogenous (from UniProt Q99816 1-390)

From publication PMC5943338
